Test results as given in paper doi:10.1101/2023.09.01.555937.
Results are given in words; binding and its absence hold for the method and conditions named. Some results given as binding are weak or reduced against the parent protein; the word gives no strength. Sequences can lack the tags named with a protein.

B1: S. cerevisiae SAM35 (no tag) (protein, UniProt P14693 1-329)
chain: MVSSFSVPMPVKRIFDTFPLQTYAAQTDKDEAVALEIQRRSYTFTERGGGSSELTVEGTYKLGVYNVFLEANTGAALATDPWCLFVQLALCQKNGLVLPTHSQEQTPSHTCNHEMLVLSRLSNPDEALPILVEGYKKRIIRSTVAISEIMRSRILDDAEQLMYYTLLDTVLYDCWITQIIFCASDAQFMELYSCQKLSGSIVTPLDVENSLLQKLSAKSLKISLTKRNKFQFRHREIVKSMQGVYHNHHNSVNQEQVLNVLFENSKQVLLGLKDMLKSDGQPTYLHLKIASYILCITNVKEPIKLKTFVENECKELVQFAQDTLKNFVQ
B2: S. cerevisiae SAM37 (N-terminally Strep tagged) (protein, UniProt P50110 1-327)
chain: MVKGSVHLWGKDGKASLISVDSIALVWFIKLCTSEEAKSMVAGLQIVFSNNTDLSSDGKLPVLILDNGTKVSGYVNIVQFLHKNICTSKYEKGTDYEEDLAIVRKKDRLLEYSLLNYVDVEISRLTDYQLFLNTKNYNEYTKKLFSKLLYFPMWYNTPLQLRSQARENCEEIIGSLTLEDDEEFVESKAMESASQLAQSKTFKIAHKNKIKGKQELQQVKYNLQFDNRLQSCVSNWLAARKKLDDSVILSSDLLFLANLYVQLGLPDGNRIRSKLEQTFGSELLNSMSNKIDDFVHRPSNNLEQRDPQFREQGNVVMSLYNLACKYI

Target: T1, S. cerevisiae SAM50 (N-terminally 3xFlag tagged) (S. cerevisiae) (UniProt P53969)
T1 sequence: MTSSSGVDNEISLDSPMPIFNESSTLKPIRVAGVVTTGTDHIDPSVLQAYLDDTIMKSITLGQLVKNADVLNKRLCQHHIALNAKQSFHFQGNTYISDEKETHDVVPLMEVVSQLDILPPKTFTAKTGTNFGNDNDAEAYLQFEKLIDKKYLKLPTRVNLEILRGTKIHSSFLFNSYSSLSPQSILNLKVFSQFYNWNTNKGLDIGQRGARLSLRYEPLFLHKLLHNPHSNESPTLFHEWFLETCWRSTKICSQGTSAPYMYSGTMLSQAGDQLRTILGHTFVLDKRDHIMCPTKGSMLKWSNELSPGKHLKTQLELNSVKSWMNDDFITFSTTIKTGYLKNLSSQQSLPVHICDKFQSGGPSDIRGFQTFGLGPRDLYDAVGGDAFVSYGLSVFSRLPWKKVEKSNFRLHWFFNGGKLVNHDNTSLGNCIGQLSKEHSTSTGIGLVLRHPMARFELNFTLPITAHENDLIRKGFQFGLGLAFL
Assay: co-purification (anti-FLAG resin, then SEC); SAM35, Strep-SAM37 and 3xFlag-SAM50 co-transfected 1:1:1 in Expi293 cells; extracted with 1% GDN; bound to Flag resin, eluted with Flag peptide; Superdex 200 10/300 in buffer B with 0.02% GDN; reconstituted into proteoliposomes that were analysed by SDS-PAGE

Binder | binding
B1 | binds
B2 | binds
